Measurements reported in PubChem BioAssay AID1259254 (NCATS, 2017).
Aim: 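Finding genes that stop cells copying their DNA twice in one cycle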 (primary screen). Cell system: human HCT116 colorectal cancer cells. Reagent: single siRNA against human genes. Timing: 3 days. Detection: 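Imaged Hoechst DNA stain sorts each cell into a cycle phase by DNA amount; per plate, G2 fraction set to 0% for non-targeting and 100% for GMNN siRNA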. Direction: G2 robust z-score: higher = more G2 cells, more excess DNA replication. Hit rule: 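An siRNA counts as active if its G2 robust z-score lies at least 5 MADs above the screen median; here such calls match roughly 38% of GMNN control or more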.
The deposit covers about 59,000 reagents; shown is a random part of them. Over the whole deposit, about 1,550 (2.6%) are marked active. 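G2 share is only a proxy for re-replication; each gene was hit by three separate siRNAs, and active genes were retested.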 Reagents against one gene are numbered here. Not all columns of the deposit are shown. No sequences are given here. Not given: the amount of reagent.

With knock-down of SYCN (syncollin) #1 the results were G2 robust z-score -0.759; inactive.
SYCN (syncollin) #2 scored G2 robust z-score -0.098; inactive.
SYCN (syncollin) #3 showed G2 robust z-score 1.8; inactive.
Depletion of GADD45B (growth arrest and DNA damage inducible beta) #1 came out at: G2 robust z-score -0.275; inactive.
For GADD45B (growth arrest and DNA damage inducible beta) #2, the entry reads G2 robust z-score 2.35; inactive.
For GADD45B (growth arrest and DNA damage inducible beta) #3 the deposit lists G2 robust z-score 0.871; inactive.
KLHL13 (kelch like family member 13) #1 showed G2 robust z-score 1.2; inactive.
Depletion of KLHL13 (kelch like family member 13) #2 came out at: G2 robust z-score 0.928; inactive.
With knock-down of KLHL13 (kelch like family member 13) #3, the screen gave G2 robust z-score 2.05; inactive.
KDM4E (lysine demethylase 4E) #1 gave G2 robust z-score 4.87; inactive.
For KDM4E (lysine demethylase 4E) #2, the values are G2 robust z-score 0.148; inactive.
For KDM4E (lysine demethylase 4E) #3, the entry reads G2 robust z-score 5.28; active.
Knock-down of BARHL2 (BarH like homeobox 2) #1 resulted in: G2 robust z-score -0.379; inactive.
For BARHL2 (BarH like homeobox 2) #2 the deposit lists G2 robust z-score -0.625; inactive.
After knock-down of BARHL2 (BarH like homeobox 2) #3, the record shows G2 robust z-score 1.34; inactive.
For EPB42 (erythrocyte membrane protein band 4.2) #1, the entry reads G2 robust z-score 0.525; inactive.
Silencing of EPB42 (erythrocyte membrane protein band 4.2) #2 came out at: G2 robust z-score -0.135; inactive.
Depletion of EPB42 (erythrocyte membrane protein band 4.2) #3 came out at: G2 robust z-score 3.89; inactive.
For PELI2 (pellino E3 ubiquitin protein ligase family member 2) #1, the values are G2 robust z-score 0.414; inactive.
Depletion of PELI2 (pellino E3 ubiquitin protein ligase family member 2) #2 resulted in: G2 robust z-score 0.117; inactive.
PELI2 (pellino E3 ubiquitin protein ligase family member 2) #3 showed G2 robust z-score -0.299; inactive.
For DRD1 (dopamine receptor D1) #1 the deposit lists G2 robust z-score -0.376; inactive.
DRD1 (dopamine receptor D1) #2 gave G2 robust z-score -0.33; inactive.
Silencing of DRD1 (dopamine receptor D1) #3 resulted in: G2 robust z-score -0.152; inactive.

Reprinted from the entries so far (3 entries):
BARHL2 (BarH like homeobox 2) #1: G2 robust z-score = -0.379; call = inactive
BARHL2 (BarH like homeobox 2) #2: G2 robust z-score = -0.625; call = inactive
BARHL2 (BarH like homeobox 2) #3: G2 robust z-score = 1.34; call = inactive
